Assay results as given in article PMC10887080.
These are yes or no findings as the source states them, for the method shown. In cells and extracts the contact can be indirect.

Amino acid sequences for entries named in this document (tags omitted). Residues count along the entry.
UniProt P07954, residues 45-510: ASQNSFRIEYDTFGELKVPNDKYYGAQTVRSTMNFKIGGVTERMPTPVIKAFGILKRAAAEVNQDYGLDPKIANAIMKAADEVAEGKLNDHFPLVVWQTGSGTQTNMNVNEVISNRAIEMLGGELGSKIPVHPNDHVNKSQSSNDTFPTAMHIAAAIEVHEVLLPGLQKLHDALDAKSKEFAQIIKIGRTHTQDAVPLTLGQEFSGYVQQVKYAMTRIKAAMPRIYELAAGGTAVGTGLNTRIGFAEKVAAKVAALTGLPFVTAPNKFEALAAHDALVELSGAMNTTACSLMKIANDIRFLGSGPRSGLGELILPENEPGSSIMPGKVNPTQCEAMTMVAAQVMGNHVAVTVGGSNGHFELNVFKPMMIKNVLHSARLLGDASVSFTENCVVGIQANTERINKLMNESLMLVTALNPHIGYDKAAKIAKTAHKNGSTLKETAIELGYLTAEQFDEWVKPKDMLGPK
UniProt P20823: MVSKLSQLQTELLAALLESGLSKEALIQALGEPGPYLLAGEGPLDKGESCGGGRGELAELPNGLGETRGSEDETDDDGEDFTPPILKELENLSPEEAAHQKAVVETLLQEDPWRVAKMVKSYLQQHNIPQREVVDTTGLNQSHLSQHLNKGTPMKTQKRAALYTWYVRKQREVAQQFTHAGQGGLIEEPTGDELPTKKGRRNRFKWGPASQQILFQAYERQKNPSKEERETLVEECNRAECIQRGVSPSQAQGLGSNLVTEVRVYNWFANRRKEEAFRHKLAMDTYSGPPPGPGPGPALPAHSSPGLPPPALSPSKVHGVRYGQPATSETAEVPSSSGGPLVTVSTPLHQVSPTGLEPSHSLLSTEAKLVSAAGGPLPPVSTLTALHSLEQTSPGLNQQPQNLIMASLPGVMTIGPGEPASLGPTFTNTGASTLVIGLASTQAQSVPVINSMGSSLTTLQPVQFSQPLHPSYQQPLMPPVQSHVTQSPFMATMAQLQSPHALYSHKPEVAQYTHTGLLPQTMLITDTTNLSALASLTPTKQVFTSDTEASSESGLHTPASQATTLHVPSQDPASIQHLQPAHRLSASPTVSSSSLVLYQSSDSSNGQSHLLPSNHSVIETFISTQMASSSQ

Target: Fumarate hydratase (human (endogenous in HCT116)) (UniProt P07954)
Test: co-IP; HCT116 cells lysed in IP lysis buffer with phosphorylase inhibitor and PMSF; supernatant, antibody and protein A/G agarose beads overnight at 4 °C; immunoblot; also done in FH knockdown HCT116 cells (binding of Ran to SREBF1 and SREBF2 increased)

Substance: HNF1A (from UniProt P20823 1-631)
- binding: no binding
